Experimental data reported in PubChem BioAssay AID1259415 (National Center for Advancing Translational Sciences (NCATS), 2018).
In all, about 410,000 compounds went through this assay and about 18,000 (4.4%) were called active. Inconclusive results, whose numbers are uncertain, are shown with a selection of clear calls. Rule as the data show it: active = activity change below about -60%; inconclusive = no clear call, values can overlap the other calls; inactive = above about -39%.
% is scaled to controls: 0 for no effect and ±100 for the full control effect.

Assay: qHTS Assay for inhibitors of the human cytomegalovirus (HCMV)
Settings: HFF cells, HCMV-luciferase reporter, 72 h; at 57.5 µM; hits give low values
Outline: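 Inhibition of viral replication was scored as loss of reporter luminescence in HFFs infected with HCMV-luciferase (MOI 1 PFU/cell) for 72 h; compounds tested at 2 doses, normalized to buffer and Salinomycin controls.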
In the case of `CC(Oc1ccc(Cl)cc1Cl)C(=O)Nc1ccc(O)cc1` (configuration not stated), the activity change, negative = inhibition is reported as inconclusive: -49.8%.
With `NC(=O)CSc1nccn1Cc1ccc(Cl)cc1` the activity change, negative = inhibition was inconclusive: -41.5%.
With `Oc1cccc(Nc2nc(-c3ccccc3)nc3ccccc23)c1` the activity change, negative = inhibition was inconclusive: -45.5%.
For `CC(C)c1ccc(C(O)P(=O)(OC2CCCCC2)OC2CCCCC2)cc1` (configuration not stated), the activity change, negative = inhibition was inconclusive: -58.5%.
With `Cc1c(Cl)cccc1NC(=S)N(Cc1ccco1)C(C)c1ccccn1` (configuration not stated) the activity change, negative = inhibition was inconclusive: -43.2%.
With `COc1ccc(C(NC(C)=O)c2cc(Cl)c3cccnc3c2O)cc1OC` (configuration not stated) the activity change, negative = inhibition was active: -99.8%.
In the case of `COc1ccc(NC(=O)Cn2c(=O)n(-c3ccccc3)c(=O)c3ccc(C(=O)NCc4ccc5c(c4)OCO5)cc32)cc1`, the activity change, negative = inhibition is reported as inconclusive: -47%.
For `CNC(=O)Oc1cccc(-c2cn3cc(Cl)ccc3n2)c1`, the activity change, negative = inhibition was inconclusive: -46.7%.
With `CC1(c2ccccc2)NC(=O)N(CC#N)C1=O` (configuration not stated) the activity change, negative = inhibition was inconclusive: -42.5%.
For `NCCCCCCNS(=O)(=O)c1cccc2c(Cl)cccc12`, the activity change, negative = inhibition was inconclusive: -43.6%.
In the case of `CC(C)(C)c1nn2cnnc2n(/N=C/c2ccccc2)c1=O`, the activity change, negative = inhibition is reported as inconclusive: -40.6%.
With `COc1cccc(S(=O)(=O)NCc2ccc(C(=O)Nc3ccc(Cl)cc3)cc2)c1` the activity change, negative = inhibition was inconclusive: -40.8%.
In the case of `COc1cccc(/C=C(\C#N)c2nc3ccc(C)cc3[nH]2)c1`, the activity change, negative = inhibition is reported as inconclusive: -51.2%.
In the case of `O=C(Nc1ccccc1N1CCOCC1)C1=NN(c2c(F)c(F)cc(F)c2F)C(=O)CC1`, the activity change, negative = inhibition is reported as inconclusive: 0%.
With `COc1cc2c(ccc3cc(OC)c(OC)c(O)c32)cc1O` the activity change, negative = inhibition was active: -105%.
With `CC1CCN(C(=O)c2ncn3c2C(=O)NC[C@H]3C)CC1` the activity change, negative = inhibition was inactive: -11.3%.
With `O=C(NNC(=O)c1cccc2ccccc12)c1ccc(Cl)cc1` the activity change, negative = inhibition was inconclusive: -41.6%.
With `CCSc1oc(-c2ccccc2)nc1S(=O)(=O)c1ccccc1` the activity change, negative = inhibition was inconclusive: -50.7%.
With `CCN1C(=O)C(O)(C2COC(C)(C)CC2=O)c2cc(Br)ccc21` (configuration not stated) the activity change, negative = inhibition was inconclusive: -58.8%.
With `CCOCCCNC(=O)N1CCN(S(=O)(=O)c2ccc3c(ccn3C)c2)CC1` the activity change, negative = inhibition was inactive: 12.4%.
In the case of `CC1CCCCC1NCC(=O)Nc1ccccc1-c1ccccc1` (configuration not stated), the activity change, negative = inhibition is reported as inconclusive: -40.9%.
With `Cc1ccc(NC(=O)N2CCCC(C(=O)O)C2)cc1` (configuration not stated) the activity change, negative = inhibition was inconclusive: -46.3%.
For `O=P(Nc1cccc(F)c1)(Oc1ccccc1F)Oc1ccccc1F`, the activity change, negative = inhibition was inconclusive: -49.5%.
For `Cc1cc2occ(CC(=O)Nc3nccs3)c2cc1C(C)C`, the activity change, negative = inhibition was inconclusive: -45.4%.
With `COC(=O)C1=CN(c2c(C)cc(C)cc2C)C(N)=C(C#N)C1c1ccccc1` (configuration not stated) the activity change, negative = inhibition was inconclusive: -42.5%.
With `CCOc1ccccc1CNC(=O)Cn1nc(C)c2nn(-c3ccc(Cl)cc3)c(C)c2c1=O` the activity change, negative = inhibition was inconclusive: -41.2%.
In the case of `Cc1ccc(S(=O)(=O)n2nc(C)cc2C)cc1`, the activity change, negative = inhibition is reported as inactive: -31.5%.
In the case of `COc1cccc(Cn2c(=O)ccc3ccccc32)c1`, the activity change, negative = inhibition is reported as active: -81%.
For `CC[n+]1c(C)cc2c(sc3ccccc32)c1C`, the activity change, negative = inhibition was active: -101%.
In the case of `CCOc1ccc(-c2nnn(CC(=O)c3ccc4c(c3)OCCO4)n2)cc1`, the activity change, negative = inhibition is reported as inactive: -29.2%.
In the case of `COc1ccccc1-c1cnc(C(O)c2cc(Cl)cc(Cl)c2)[nH]1` (configuration not stated), the activity change, negative = inhibition is reported as inconclusive: -46.4%.
For `Cc1ccccc1NC(=O)c1ccccc1NC(=O)c1ccccc1F`, the activity change, negative = inhibition was inconclusive: -53.2%.
With `O=C(Nc1cccnc1)Nc1cc(Cl)cc(Cl)c1` the activity change, negative = inhibition was active: -60.9%.
For `O=C(CN1C(=O)COc2ccc(S(=O)(=O)N3CCCCC3)cc21)NCCc1ccc(Cl)cc1`, the activity change, negative = inhibition was inconclusive: -53.3%.
With `O=C(Nc1cccc(Cl)c1)NC1CC2CCC(C1)N2Cc1ccco1` (configuration not stated) the activity change, negative = inhibition was inconclusive: -41.7%.
For `COc1cc(C2Oc3cc(C4Oc5cc(O)cc(O)c5C(=O)C4O)ccc3OC2CO)ccc1O` (configuration not stated), the activity change, negative = inhibition was active: -66.8%.
For `CC(C)C[C@H](NC(=O)N1c2ccccc2NC(=O)[C@@H]1C(C)C)C(=O)N[C@@H](Cc1ccccc1)C(=O)O`, the activity change, negative = inhibition was inactive: -6.41%.
For `COc1ccc(CCNC(=S)Nc2cc(C)ccc2C)cc1`, the activity change, negative = inhibition was inconclusive: -40.8%.
With `CC1CN=C(Nc2ccc(F)cc2)S1` (configuration not stated) the activity change, negative = inhibition was inconclusive: -40.1%.
In the case of `O=C(NCc1ccccc1)c1cccc(NC(=O)N2CCSc3ncccc32)c1`, the activity change, negative = inhibition is reported as inconclusive: 0%.
For `Nc1nc2c(C(=O)N3CCCC3)nnn2c2ccccc12`, the activity change, negative = inhibition was inactive: 12.1%.
With `Cc1cccc(C)c1OCc1nc2ccccc2c(=O)n1/N=C/c1c[nH]c2ccccc12` the activity change, negative = inhibition was inactive: -39.2%.
For `CCN(CC(=O)Nc1c(F)cccc1F)C(=O)Cc1csc(-c2ccc(OC)c(OC)c2)n1`, the activity change, negative = inhibition was inactive: -2.25%.
For `Cc1cccc(NC(=S)NCc2ccc(F)cc2)c1C`, the activity change, negative = inhibition was inactive: -26%.
With `N=c1n(CCN2CCCC2)c2ccccc2n1CC(O)c1ccc(Cl)c(Cl)c1` (configuration not stated) the activity change, negative = inhibition was active: -98.6%.
For `CCNS(=O)(=O)c1ccc(NC(=O)c2ccc(Cn3cc(Br)cn3)o2)cc1`, the activity change, negative = inhibition was inconclusive: -51.5%.
In the case of `CCc1nnc(NC(=O)CSc2nnc(-c3ccc(S(=O)(=O)N(CC)CC)cc3)n2CC)s1`, the activity change, negative = inhibition is reported as inconclusive: -53.5%.
For `COc1cc(C2NC(=O)N(C)C3=C2C(=O)N(c2ccccc2)C3)ccc1O` (configuration not stated), the activity change, negative = inhibition was active: -97%.
For `Cc1cc(N2CCN(C(=O)Oc3ccc([N+](=O)[O-])cc3)CC2)c2ccccc2n1`, the activity change, negative = inhibition was inconclusive: -44.9%.
In the case of `CCCCN(CC)C(=O)CSc1nc2ccccc2c(=O)n1CC1COc2ccccc2O1` (configuration not stated), the activity change, negative = inhibition is reported as inconclusive: -50.5%.
For `COc1cccc(C(C(=O)NC2CCCC2)N(C(=O)c2ccco2)c2ccc(-n3cnnn3)c(C)c2)c1OC` (configuration not stated), the activity change, negative = inhibition was inconclusive: -42.5%.
In the case of `Cc1nc2nc(SCC(=O)c3cccc([N+](=O)[O-])c3)[nH]c2cc1Br`, the activity change, negative = inhibition is reported as inactive: 51.7%.
In the case of `CCn1c(C(=O)N2CCCC(C(=O)NCCc3ccc(C)cc3)C2)cc2sccc21` (configuration not stated), the activity change, negative = inhibition is reported as inconclusive: -45.8%.
In the case of `Cc1cccc(CN2C(=O)c3ccccc3Sc3ccc(C(=O)NCCc4ccccc4)cc32)c1`, the activity change, negative = inhibition is reported as inconclusive: -43%.
For `CC(C)CC(NC(=O)C(NC(=O)C1CCC(=O)N1C(=O)OCc1ccccc1)C(C)C)C(=O)N1CCCC1C(N)=O` (configuration not stated), the activity change, negative = inhibition was inactive: -30.1%.
For `CCOc1ccc(N2C(=O)CC(N3CCc4ccccc43)C2=O)cc1` (configuration not stated), the activity change, negative = inhibition was inactive: 8.31%.
For `O=C1NCCc2c1[nH]c1ccccc21`, the activity change, negative = inhibition was inactive: 23.4%.
With `CC(C)OCCCNc1nc2c(cnn2C)c(=O)[nH]1` the activity change, negative = inhibition was inactive: -13.2%.
For `CC1CN(C(=O)Cn2cc(S(=O)(=O)CC(=O)N(C)c3ccccc3)c3ccccc32)CC(C)O1` (configuration not stated), the activity change, negative = inhibition was inactive: 8.86%.
For `N#CCCN(Cc1ccccc1)C(=S)NC(=O)c1ccccc1`, the activity change, negative = inhibition was inactive: -10.2%.
With `O=C1/C(=C/c2ccncc2)SC(=S)N1Cc1ccccc1` the activity change, negative = inhibition was active: -72.7%.
In the case of `COc1cccc(C(=O)Nc2nc(-c3ccc(S(=O)(=O)N4CCOCC4)cc3)cs2)c1`, the activity change, negative = inhibition is reported as active: -87.5%.
With `CC(C)CCn1c(-c2nonc2N)nc2ccccc21` the activity change, negative = inhibition was inconclusive: -52.8%.
For `COc1ccc(OC)c(NC(=O)Cn2cc(C(=O)c3cccs3)c3ccccc32)c1`, the activity change, negative = inhibition was inconclusive: -59.2%.
With `CC(C)N1CCC(N2CCN(Cc3cc(F)ccc3-n3cccn3)CC2CCO)CC1` (configuration not stated) the activity change, negative = inhibition was inconclusive: -48.1%.
In the case of `CCOc1ccc2oc(=O)cc(CN3CCN(C(=O)c4ccc(Cl)cc4)CC3)c2c1`, the activity change, negative = inhibition is reported as active: -66.5%.
In the case of `CCCCc1nn2c(=O)cc(COC(=O)CNC(=O)c3ccccc3C)nc2s1`, the activity change, negative = inhibition is reported as inactive: -1.57%.
With `Cc1cccc(N(C)C(=O)C2CCN(S(=O)(=O)c3cccc4nonc34)CC2)c1` the activity change, negative = inhibition was inactive: -16.6%.
For `Cc1ccc2nc(Nc3ccc(Br)cc3)nc(-c3ccccc3)c2c1`, the activity change, negative = inhibition was inconclusive: -53.2%.
With `COc1ccc(N=Nc2cnc(C)nc2-c2ccccc2)cc1` the activity change, negative = inhibition was inactive: 21.8%.
With `COc1ccc(C2C(C(=O)Nc3ccc4c(c3)OCCO4)c3ccccc3C(=O)N2C)cc1` (configuration not stated) the activity change, negative = inhibition was inconclusive: -41.8%.
With `CCCCNC(=O)CCn1c(=O)c2ccccc2n(Cc2ccccc2C)c1=O` the activity change, negative = inhibition was inconclusive: -59.4%.
In the case of `O=C(COc1ccc(Br)cc1CO)Nc1ccc(S(=O)(=O)N2CCCC2)cc1`, the activity change, negative = inhibition is reported as inconclusive: -45.3%.
In the case of `Cc1cc(NC(=O)c2cc(-c3ccccc3C)nc3ccccc23)no1`, the activity change, negative = inhibition is reported as active: -74.4%.
For `COc1ccc(/C=C/C(=O)Nc2ccc(Cl)c(Cl)c2)cc1OC`, the activity change, negative = inhibition was active: -81.5%.
For `COc1ccc(/C=C/C(=O)Oc2cccc(/C=N/NC(=O)COc3c(C)cccc3C)c2)cc1`, the activity change, negative = inhibition was inconclusive: -55%.
With `CC1C(C)N1CC(O)Cn1ccnc1[N+](=O)[O-]` (configuration not stated) the activity change, negative = inhibition was inconclusive: -54.6%.
With `COc1cccc2c3c(c(C)nc12)CCN3c1ccccc1` the activity change, negative = inhibition was active: -77.8%.
With `Cc1ccc(NC(=O)CN(C)CC(=O)Nc2cccc(F)c2)cc1S(=O)(=O)N1CCCCCC1` the activity change, negative = inhibition was active: -65.9%.
With `CCC[C@@H]1C[C@@H](C(=O)N[C@H]([C@@H](C)O)[C@H]2O[C@H](SC)[C@H](O)[C@@H](O)C2O)N(C)C1` (some centres not stated) the activity change, negative = inhibition was inactive: 26.2%.
For `Cc1cccc(CN2CCN(C3CN(Cc4cn(Cc5cccc(Cl)c5)nn4)S(=O)(=O)C3)CC2)c1` (configuration not stated), the activity change, negative = inhibition was inconclusive: -49%.
With `COc1ccc(S(=O)(=O)N(CC(=O)N2CCCC2)Cc2ccccc2)cc1` the activity change, negative = inhibition was inconclusive: -59.3%.
For `Cc1c(CCC(=O)N[C@@H](CC(C)C)C(=O)O)c(=O)oc2cc3oc4c(c3cc12)CCCC4`, the activity change, negative = inhibition was inconclusive: -42.4%.
In the case of `COc1ccc(NC(=O)N2CCCC(C(=O)NCCc3ccccc3)C2)cc1` (configuration not stated), the activity change, negative = inhibition is reported as inactive: 10.3%.
In the case of `CC(C)(C)n1nc(Cc2cccc3ccccc23)c2c(N)ncnc21`, the activity change, negative = inhibition is reported as inconclusive: -50.9%.
In the case of `O=C1c2ccccc2C(=O)c2c1ccc1c(=O)n(-c3ccccc3)[nH]c21`, the activity change, negative = inhibition is reported as active: -65.2%.
In the case of `COc1cccc(-c2cc(C(F)(F)F)c(C#N)c(=O)[nH]2)c1`, the activity change, negative = inhibition is reported as inconclusive: -44.1%.
